Assay results reported in publication PMC8897422.
No constants are given. Whether binding was seen depends on the method and setting. In cells and extracts the contact can be indirect. Blank lines part the entries; values can stand above or below the binder they belong to.

Protein sequences, listed by entry. Tags and fused reporters are not part of them.
UniProt O14744: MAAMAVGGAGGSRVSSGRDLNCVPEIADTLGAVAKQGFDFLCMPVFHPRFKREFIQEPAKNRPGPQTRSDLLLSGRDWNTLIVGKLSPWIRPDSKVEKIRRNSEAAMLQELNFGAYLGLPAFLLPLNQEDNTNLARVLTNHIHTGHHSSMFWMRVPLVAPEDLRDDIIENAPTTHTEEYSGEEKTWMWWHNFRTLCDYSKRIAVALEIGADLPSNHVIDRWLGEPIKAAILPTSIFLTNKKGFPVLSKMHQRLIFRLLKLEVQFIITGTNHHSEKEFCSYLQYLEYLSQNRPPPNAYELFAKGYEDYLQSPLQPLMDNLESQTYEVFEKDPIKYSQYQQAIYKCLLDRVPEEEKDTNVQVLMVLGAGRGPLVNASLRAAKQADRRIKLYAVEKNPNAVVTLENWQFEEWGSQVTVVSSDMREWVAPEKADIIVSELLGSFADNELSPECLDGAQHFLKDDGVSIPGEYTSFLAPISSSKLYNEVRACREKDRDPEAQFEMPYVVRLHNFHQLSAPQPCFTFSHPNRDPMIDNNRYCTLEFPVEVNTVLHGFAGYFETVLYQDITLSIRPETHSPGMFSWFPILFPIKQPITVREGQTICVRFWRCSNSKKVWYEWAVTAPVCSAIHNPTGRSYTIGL

What was measured:
[1] = target: protein arginine methyltransferase 5 (PRMT5), endogenous (human (endogenous in LN229, Huh7 and HOK)) (UniProt O14744); test: co-IP; immunoprecipitation with an anti-PRMT5 antibody from lysates of LN229, Huh7 or HOK cells, normoxia or 1% oxygen for 12 h; overnight at 4 °C, protein A or G agarose, washed 3 times with lysis buffer (0.1% SDS, 1% Triton X-100, 150 mM NaCl); immunoblot
[2] = target: T1, Unc-51 like autophagy activating kinase 1 (ULK1), endogenous (human (endogenous in LN229, Huh7 and HOK)) (UniProt O75385); test: co-IP; immunoprecipitation with an anti-ULK1 antibody from lysates of LN229, Huh7 or HOK cells cultured in normoxia; overnight at 4 °C, protein A or G agarose, washed 3 times with lysis buffer (0.1% SDS, 1% Triton X-100, 150 mM NaCl); immunoblot
T1 sequence: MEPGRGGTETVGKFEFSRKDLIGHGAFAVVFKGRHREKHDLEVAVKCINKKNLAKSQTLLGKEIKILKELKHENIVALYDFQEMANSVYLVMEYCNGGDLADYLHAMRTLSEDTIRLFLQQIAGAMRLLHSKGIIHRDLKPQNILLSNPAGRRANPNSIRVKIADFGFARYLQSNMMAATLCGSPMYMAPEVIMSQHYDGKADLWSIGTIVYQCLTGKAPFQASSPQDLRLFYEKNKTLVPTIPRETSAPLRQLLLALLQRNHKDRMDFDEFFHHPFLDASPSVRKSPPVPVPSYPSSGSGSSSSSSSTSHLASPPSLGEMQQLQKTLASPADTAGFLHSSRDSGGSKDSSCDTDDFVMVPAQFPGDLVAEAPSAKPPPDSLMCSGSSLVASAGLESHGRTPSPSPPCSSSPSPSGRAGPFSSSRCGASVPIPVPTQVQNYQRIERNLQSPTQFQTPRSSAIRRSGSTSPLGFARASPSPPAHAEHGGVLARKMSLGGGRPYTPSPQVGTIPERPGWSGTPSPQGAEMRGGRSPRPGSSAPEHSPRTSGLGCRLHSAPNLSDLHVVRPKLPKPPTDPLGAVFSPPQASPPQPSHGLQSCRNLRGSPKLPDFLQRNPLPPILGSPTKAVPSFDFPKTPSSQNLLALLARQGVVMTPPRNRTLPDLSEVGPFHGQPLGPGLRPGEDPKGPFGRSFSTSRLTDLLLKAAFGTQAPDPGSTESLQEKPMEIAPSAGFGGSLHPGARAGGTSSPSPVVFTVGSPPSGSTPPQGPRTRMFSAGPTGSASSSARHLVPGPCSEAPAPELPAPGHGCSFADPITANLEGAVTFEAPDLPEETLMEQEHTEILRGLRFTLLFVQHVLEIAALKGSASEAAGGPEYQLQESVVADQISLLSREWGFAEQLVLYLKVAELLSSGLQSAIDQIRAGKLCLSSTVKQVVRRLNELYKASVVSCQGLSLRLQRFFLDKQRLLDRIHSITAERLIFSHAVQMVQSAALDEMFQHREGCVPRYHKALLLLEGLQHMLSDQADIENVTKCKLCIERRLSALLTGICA

binding [1]: no binding
B1: ULK2, endogenous (protein, UniProt Q8IYT8 1-1036)
chain: MEVVGDFEYSKRDLVGHGAFAVVFRGRHRQKTDWEVAIKSINKKNLSKSQILLGKEIKILKELQHENIVALYDVQELPNSVFLVMEYCNGGDLADYLQAKGTLSEDTIRVFLHQIAAAMRILHSKGIIHRDLKPQNILLSYANRRKSSVSGIRIKIADFGFARYLHSNMMAATLCGSPMYMAPEVIMSQHYDAKADLWSIGTVIYQCLVGKPPFQANSPQDLRMFYEKNRSLMPSIPRETSPYLANLLLGLLQRNQKDRMDFEAFFSHPFLEQGPVKKSCPVPVPMYSGSVSGSSCGSSPSCRFASPPSLPDMQHIQEENLSSPPLGPPNYLQVSKDSASTSSKNSSCDTDDFVLVPHNISSDHSCDMPVGTAGRRASNEFLVCGGQCQPTVSPHSETAPIPVPTQIRNYQRIEQNLTSTASSGTNVHGSPRSAVVRRSNTSPMGFLRPGSCSPVPADTAQTVGRRLSTGSSRPYSPSPLVGTIPEQFSQCCCGHPQGHDSRSRNSSGSPVPQAQSPQSLLSGARLQSAPTLTDIYQNKQKLRKQHSDPVCPSHTGAGYSYSPQPSRPGSLGTSPTKHLGSSPRSSDWFFKTPLPTIIGSPTKTTAPFKIPKTQASSNLLALVTRHGPAEEQSKDGNEPRECAHCLLVQGSERQRAEQQSKAVFGRSVSTGKLSDQQGKTPICRHQGSTDSLNTERPMDIAPAGACGGVLAPPAGTAASSKAVLFTVGSPPHSAAAPTCTHMFLRTRTTSVGPSNSGGSLCAMSGRVCVGSPPGPGFGSSPPGAEAAPSLRYVPYGASPPSLEGLITFEAPELPEETLMEREHTDTLRHLNVMLMFTECVLDLTAMRGGNPELCTSAVSLYQIQESVVVDQISQLSKDWGRVEQLVLYMKAAQLLAASLHLAKAQIKSGKLSPSTAVKQVVKNLNERYKFCITMCKKLTEKLNRFFSDKQRFIDEINSVTAEKLIYNCAVEMVQSAALDEMFQQTEDIVYRYHKAALLLEGLSRILQDPADIENVHKYKCSIERRLSALCHSTATV

binding [2]: no binding
B2: KDM4E, endogenous (enzyme, UniProt B2RXH2 1-506)
chain: MKSVHSSPQNTSHTIMTFYPTMEEFADFNTYVAYMESQGAHQAGLAKVIPPKEWKARQMYDDIEDILIATPLQQVTSGQGGVFTQYHKKKKAMRVGQYRRLANSKKYQTPPHQNFADLEQRYWKSHPGNPPIYGADISGSLFEESTKQWNLGHLGTILDLLEQECGVVIEGVNTPYLYFGMWKTTFAWHTEDMDLYSINYLHFGEPKTWYVVPPEHGQHLERLARELFPDISRGCEAFLRHKVALISPTVLKENGIPFNCMTQEAGEFMVTFPYGYHAGFNHGFNCAEAINFATPRWIDYGKMASQCSCGESTVTFSMDPFVRIVQPESYELWKHRQDLAIVEHTEPRVAESQELSNWRDDIVLRRAALGLRLLPNLTAQCPTQPVSSGHCYNPKGCGTDAVPGSAFQSSAYHTQTQSLTLGMSARVLLPSTGSWGSGRGRGRGQGQGRGCSRGRGHGCCTRELGTEEPTVQPASKRRLLMGTRSRAQGHRPQLPLANDLMTNLSL
